PubChem BioAssay AID493246 | Drosophila RNAi Screening Center | 2011

Screen: 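Genes fly cells need to grow and stay alive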 (primary screen)
System: Drosophila Kc and S2R+ cells
Reagent: long dsRNA against Drosophila genes
Detection: 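Raw, unnormalised count of remaining cells in each well; per-plate z-scores of cell number underlie the calls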
Direction: Kc cell number and S2R+ cell number: higher = more cells remaining
Rule for the call: 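Counted as a hit if cell number falls by a z-score of at least 3 within its plate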
The screen tested about 21,000 reagents; below is a random part of those with a known target gene and a result. In the full data, 429 (2%) got an active call. 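Values are raw and not normalised between plates; calls rest on per-plate z-scores that were not deposited.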 Reagents against one gene are numbered here. A plus sign joins genes that one reagent is predicted to hit. Not given: the amount of reagent, the time to read-out.

target gene	reagent no.	Kc cell number, rep 1	Kc cell number, rep 2	S2R+ cell number, rep 1	S2R+ cell number, rep 2	Outcome
CG11444	1	5.64e5		8.11e5		inactive
CG18599	1	1.49e6	1.50e6	1.01e6	1.16e6	inactive
Dim1	1	1.45e6	1.39e6	9.31e5	1.08e6	inactive
Saf-B	1	1.42e6	1.48e6	9.68e5	1.06e6	inactive
ODA-Dnal1	1	1.55e6	1.57e6	1.35e6	1.39e6	inactive
CG3226	1	6.49e5		9.39e5		inactive
CG4390	1	1.64e6	1.66e6	1.27e6	1.29e6	inactive
Sas-4	1	1.62e6	1.71e6	1.29e6	1.32e6	inactive
CG34337	1	1.62e6	1.58e6	1.11e6	1.22e6	inactive
Polr3I	1	1.56e6	1.64e6	1.03e6	1.16e6	inactive
Ror	1	1.51e6	1.53e6	1.16e6	1.33e6	inactive
mib2	1	1.05e6	1.10e6	1.17e6	1.19e6	inactive
Rtf1	1	1.46e6	1.60e6	9.09e5	9.30e5	inactive
witty	1	1.59e6	1.66e6	1.19e6	1.37e6	inactive
Cyt-b5	1	1.04e6	1.26e6	8.15e5	8.10e5	inactive
fend	1	1.35e6	1.49e6	1.04e6	1.15e6	inactive
fend	2	1.68e6	1.63e6	1.04e6	1.12e6	inactive
ms(3)76Cc	1	1.46e6	1.43e6	1.36e6	1.48e6	inactive
pr	1	1.54e6	1.72e6	1.37e6	1.45e6	inactive
CG7202	1	1.46e6	1.49e6	1.34e6	1.43e6	inactive
RpS12	1	1.05e6	1.16e6	9.31e5	8.13e5	inactive
CG5521	1	1.47e6	1.44e6	1.02e6	1.04e6	inactive
EDTP	1	1.62e6	1.61e6	1.21e6	1.41e6	inactive
CG8834	1	1.62e6	1.63e6	1.42e6	1.43e6	inactive
CG34263	1	1.50e6	1.43e6	1.03e6	1.19e6	inactive
CG3091	1	1.52e6	1.59e6	1.06e6	1.27e6	inactive
anne	1	1.73e6	1.58e6	1.11e6	1.24e6	inactive
Mtk	1	1.63e6	1.64e6	1.26e6	1.46e6	inactive

Continued; the last 4 above are carried over.
target gene	reagent no.	Kc cell number, rep 1	Kc cell number, rep 2	S2R+ cell number, rep 1	S2R+ cell number, rep 2	Outcome
CG34263	1	1.50e6	1.43e6	1.03e6	1.19e6	inactive
CG3091	1	1.52e6	1.59e6	1.06e6	1.27e6	inactive
anne	1	1.73e6	1.58e6	1.11e6	1.24e6	inactive
Mtk	1	1.63e6	1.64e6	1.26e6	1.46e6	inactive
CG5191	1	1.53e6	1.61e6	1.18e6	1.25e6	inactive
CG5191	2	1.32e6	1.34e6	1.01e6	1.14e6	inactive
CG9018	1	1.29e6	1.30e6	1.03e6	1.18e6	inactive
CG3473	1	1.66e6	1.68e6	1.34e6	1.53e6	inactive
mld	1	1.04e6	1.46e6	1.03e6	1.03e6	inactive
mld	2	1.50e6	1.54e6	1.15e6	1.25e6	inactive
DptA	1	1.77e6	1.75e6	1.26e6	1.45e6	inactive
mtDNA-helicase	1	1.65e6	1.60e6	1.33e6	1.48e6	inactive
CG10097 + CG10096	1	1.33e6	1.52e6	1.17e6	1.31e6	inactive
CG10097 + CG10096	2	1.35e6	1.34e6	1.24e6	1.31e6	inactive
Prosbeta1	1	8.88e5	9.74e5	5.62e5	6.25e5	active
CG4619	1	1.37e6	1.45e6	1.13e6	1.22e6	inactive
Pgam5-2	1	1.47e6	1.54e6	1.31e6	1.33e6	inactive
CG13562	1	1.87e6	1.92e6	1.33e6	1.38e6	inactive
p	1	1.26e6	1.43e6	1.28e6	1.32e6	inactive
CG1812	1	1.77e6	1.71e6	1.10e6	1.16e6	inactive
TfIIFalpha	1	1.76e6	1.95e6	1.36e6	1.47e6	inactive
obst-J	1	1.43e6	1.43e6	1.37e6	1.44e6	inactive
Atg4b	1	1.84e6	1.98e6	1.62e6	1.84e6	inactive
CG6425	1	5.31e5		7.73e5		inactive
Mct1	1	1.54e6	1.54e6	1.13e6	1.25e6	inactive
dec	1	1.68e6	1.67e6	1.14e6	1.26e6	inactive
AANATL7	1	1.49e6	1.42e6	9.90e5	9.74e5	inactive
GstE14	1	1.55e6	1.56e6	1.17e6	1.35e6	inactive
Df31	1	1.50e6	1.69e6	1.05e6	1.23e6	inactive
CG5002	1	1.54e6	1.66e6	1.19e6	1.04e6	inactive
Sas10	1	1.53e6	1.56e6	1.01e6	1.19e6	inactive
Gfat2	1	5.47e5		8.51e5		inactive
Naa35	1	1.25e6	1.35e6	1.00e6	1.11e6	inactive
CG9098	1	1.55e6	1.58e6	1.03e6	1.14e6	inactive
CG15306	1	1.58e6	1.55e6	1.01e6	1.10e6	inactive
CG15306	2	1.37e6	1.46e6	1.09e6	1.21e6	inactive
